For assay [1], the target named is Full-length recombinant human TSG-6 (rhTSG-6) (human) (UniProt P98066). Description: spectroscopic ellipsometry; titration of Link_TSG6 or rhTSG-6 into an HA film with a constant amount of PTX3 (0.3 or 1 μM) in the solution phase, compared with no PTX3; HEPES buffer pH 7.4; both purified.
In assay [2] the target is Wild type human TSG-6 Link module (Link_TSG6) (human) (UniProt P98066). The description is as above.
Assay [3] has the same target. The assay can be described thus: spectroscopic ellipsometry; sequential binding: end-grafted HA film (837 kDa) first loaded with Link_TSG6 (5 μM) or rhTSG-6, free TSG-6 protein kept in solution, then PTX3 added (0.3 μM monomer); MNB4 antibody as probe for PTX3; HEPES buffer pH 7.4; both purified.
Assay [4] deals with Biotinylated Link_TSG6 (b-Link_TSG6; species A) (human) (UniProt P98066). Description: QCM-D (quartz crystal microbalance with dissipation monitoring); b-Link_TSG6 immobilised on a streptavidin monolayer; PTX3 constructs flowed over, then buffer rinse; 23 °C; HEPES buffer (150 mM NaCl, 10 mM HEPES, pH 7.4, 2 mM CaCl2, 5 mM MgCl2); no HA; both purified.

By UniProt entry, the sequences of proteins in these tests, tags left out. Where a name states a change or a piece, a line headed by the entry shows the natural chain unless it says otherwise. Chains listed by the source or under a name are the forms on record and can include a tag or linker. Residues count along the entry.
UniProt P98066: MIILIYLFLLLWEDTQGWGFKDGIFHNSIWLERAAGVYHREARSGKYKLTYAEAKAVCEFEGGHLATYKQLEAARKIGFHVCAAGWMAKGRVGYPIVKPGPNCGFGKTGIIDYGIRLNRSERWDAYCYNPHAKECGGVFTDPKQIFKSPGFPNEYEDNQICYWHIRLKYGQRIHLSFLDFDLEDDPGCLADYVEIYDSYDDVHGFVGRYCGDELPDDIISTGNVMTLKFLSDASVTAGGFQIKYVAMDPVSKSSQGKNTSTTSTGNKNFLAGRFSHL
Full-length recombinant human TSG-6 (rhTSG-6): residues 18-277 of P98066
Biotinylated Link_TSG6 (b-Link_TSG6; species A): residues 36-129 of P98066
Recombinant human PTX3 8-mer (pentraxin 3, wild type) (P26022, residues 18-381): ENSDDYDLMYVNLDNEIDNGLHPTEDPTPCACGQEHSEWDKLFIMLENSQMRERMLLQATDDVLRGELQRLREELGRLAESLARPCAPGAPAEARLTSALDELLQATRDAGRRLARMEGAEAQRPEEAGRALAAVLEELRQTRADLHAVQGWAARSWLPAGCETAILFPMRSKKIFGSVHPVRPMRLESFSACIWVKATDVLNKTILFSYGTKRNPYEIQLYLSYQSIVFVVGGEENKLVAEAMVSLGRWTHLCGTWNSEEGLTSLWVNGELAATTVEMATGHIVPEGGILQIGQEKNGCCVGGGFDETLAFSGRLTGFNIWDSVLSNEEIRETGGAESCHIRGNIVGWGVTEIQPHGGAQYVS
Dimer-forming mutant of the PTX3 N-terminal domain (N_PTX3_MUT) (P26022, form named): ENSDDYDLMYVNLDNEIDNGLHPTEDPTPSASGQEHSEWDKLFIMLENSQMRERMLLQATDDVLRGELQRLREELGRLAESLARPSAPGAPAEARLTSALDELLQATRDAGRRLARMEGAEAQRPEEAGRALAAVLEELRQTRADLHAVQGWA

Binding data for two substances are collected here from publication PMC4215230.

These are yes or no findings as the source states them, for the method shown. Some binding calls cover weakened binding; strength is not graded here.

“Recombinant human PTX3 8-mer (pentraxin 3, wild type) (from UniProt P26022 18-381)”: the binding entry in assay [1], in assay [2], in assay [3] and in assay [4] was “binds” each time.
Consider “Dimer-forming mutant of the PTX3 N-terminal domain (N_PTX3_MUT) (from UniProt P26022 18-170) (domain or fragment)”, for which the binding result in assay [4] is “binds”.
